These results are taken from patent US20250250301A1, “DE NOVO DESIGNED BINDERS TARGETING HUMAN EPCAM AND PDL1 RECEPTORS” (University of Washington, priority 2022, published 2025).

No constants are given. Whether binding was seen depends on the method and setting. Some entries that bind do so weakly or less than the wild type.

The target of assay [1] is T1, human epithelial cell adhesion molecule (EpCAM) receptor, extracellular portion (human) (UniProt P16422).
T1 sequence (looked up): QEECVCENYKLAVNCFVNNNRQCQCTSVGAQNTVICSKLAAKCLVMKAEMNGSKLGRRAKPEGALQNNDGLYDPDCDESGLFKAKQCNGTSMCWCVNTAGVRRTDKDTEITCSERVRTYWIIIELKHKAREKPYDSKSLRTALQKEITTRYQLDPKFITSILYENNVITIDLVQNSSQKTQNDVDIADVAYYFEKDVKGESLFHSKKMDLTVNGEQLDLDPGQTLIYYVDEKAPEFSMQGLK
The assay can be described thus: yeast surface display screen.

In assay [2] the target is T1, human epithelial cell adhesion molecule (EpCAM) receptor, extracellular portion (human). The assay can be described thus: Octet (BLI). In general terms: BLI is a label-free optical method that tracks binding on a fibre tip over time.
Assay [3] has the same target. The assay can be described thus: Octet, target immobilized on the sensor, binder 20, 10, 5, 2.5, 1 and 0.5 nM, association to about 1000 s, dissociation to 1750 s.

B1: EpcamBind1 (designed binder)
chain: DEERLRELVEELVKELGLSERAKRMLEQFLRSALEQGFDEEQIRMALEQLAEQAREI
With B1, in assay [1], the binding entry was “binds”.

B2: gs linked dimer of EpCAMBind1_cterm_cys (designed binder)
chain: DEERLRELVEELVKELGLSERYKRTLERHLRTALEQGYDEEQIRMNLEQLAQQAREIGGSGGSDEERLRELVEELVKELGLSERYKRTLERHLRTALEQGYDEEQIRMNLEQLAQQAREI
notes: also called EpCAM1_dimer
Consider B2, for which the binding entry in assay [2] and in assay [3] was “binds” throughout.
